Data taken from PubChem BioAssay AID1159506, deposited by NCATS (2015).

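Genome-wide siRNA knockdown in TC32 Ewing sarcoma cells, comparing luciferase light from an NR0B1-promoter reporter with a CMV-promoter reporter 48 hours after transfection.
Each siRNA was applied at 20 nM.
A z-score of the log NR0B1-over-CMV signal, less the median of siRNAs with the same seed; more negative means a stronger specific loss of the NR0B1 reporter.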

The strongest results of the screen are mostly left out here.
Sequences are the guide (antisense) strand, without overhang.

Sequence	target gene	seed-corrected z-score
UACUUGAUAAACACCAGGG	PSEN1	-0.2474
UGAGUAGUCAGGUGCACAU	KRT35	0.3567
UUAUUAAAGGCAGGGAGCU	CHPF	0.4709
UAGAUUAUCAAAGGCCUUC	ZNF833P	-0.1416
UUAACGGCUUCCGUUAUUC	ATG3	0.2357
UAUACGAUGACAUAGGCAC	REM1	0.1533
AUUGUCUCACUUAUAUUUC	ZMYM5	0.9091
UUCAGGAUGAAAAAGGCAC	ATP5SL	0.1669
AACUGAAUCAAGUGUGAGG	RPP38	-0.194
UCAGCUCAUAGUUUACCCG	ADCY2	-0.005683
UCAUCCUGCAGAGAGAUCC	ANKRD34C-AS1	-0.6686
UACACCUUGACAAAGAUCU	INTS1	0.6408
UGUAGCUCCAUCAGCACCC	CHTF8	0.3623
UACUCGACAUUUUUGGUCC	SCN9A	0.33
UUAUUUCGGAUAUAGAAUC	KIAA1586	0.4791
UCAGUGAGCAGAUCGAGAG	NOCT	0.06456
UCAUGGUUGAUGAAGGCGG	KMT5C	0.6015
UGACCGAGAAGUAAGUCCC	PALB2	0.02719
UUUCUAGUAAGCCUCGGUC	TMEM163	-0.5015
UUGUUCAAACUCAAUUUUC	MYL1	0.7354
UUCUUCGACACCCACUUCC	MAN1B1	0.5842
UACUUCCACAUGCAGAUCC	CCDC189	-0.1497
UUACUAGGAAGGUCCAAAC	DENND4C	2.159
UCACCAUUAGCUCCGACUG	AGER	-0.3466
UUUCUUAUUAUCCAUGGUC	CLCN6	-0.0461
UCAUCUUCUCCAGAGACAC	CENPT	-0.3898
UUCUCAUCCAGGAUAUCGC	ELF4	-0.6328
UUCCAUUUCUGCGCUACCC	LOC728805	-1.643
ACGGGUUUCGGUAAAUUCC	AMZ2	0.6616
ACAGGUUCAUGAGCGGUGG	C11orf21	-0.1591
UGACAGUACACCAACACUG	LOC284023	-0.5959
UCAGCUAUUCGGAUGAUGG	FAM132B	-1.465
UUGAAGAUAAUCGAAGUUG	DCK	0.5564
UAAGAAGUUAGUCAUAAGU	GPR148	1.14
UCAACUUGUACUCUAGGUC	IFRD1	0.9249
UCGUGUUGAAAAAUCACUC	KLRK1	0.5039
UCAUCUACACUUGCGGAGC	ZNF431	-0.05515
AAAUCGAAGAGAAACAGAC	KRT222	0.6386
AAUACACCUAGUAAAGACC	APPL1	0.3242
UACUCCACCGAGAAGUUGU	LINGO3	-0.1671
UUCAUAACCACAGGACUCG	ANKS1A	-1.248
UACUGUAUCUCACAGCUGG	SUGCT	0.2344
UCUUUGAUAUUCUUGAUGG	S100A12	0.7212
UAGGUUGACGUAGGUAACU	LRIT1	0.2944
UUGGUAAUCCUGCUCCUUC	TMED4	0.5385
AGAUCUUCAAGGUCCAUGC	NALCN	-0.7539
AUUUCCGUAAGCUUGCUCC	KLHL31	-0.5822
UCUGUGGUCUGUUCAAUGC	NOV	-0.6692
UCCAUCUACAGGUUGCACC	C8orf33	0.6713
UUCCUGAUUCGGGAAGUUG	CA6	1.078
UUCUUAGUCAGCAUGAGGA	CFAP157	-0.6224

Some entries from above, unchanged:

For UCAGCUAUUCGGAUGAUGG against FAM132B the result was seed-corrected z-score -1.465.
For UUAACGGCUUCCGUUAUUC against ATG3 the result was seed-corrected z-score 0.2357.
For UUGGUAAUCCUGCUCCUUC against TMED4 the result was seed-corrected z-score 0.5385.
For UCAUCUUCUCCAGAGACAC against CENPT the result was seed-corrected z-score -0.3898.
For AAAUCGAAGAGAAACAGAC against KRT222 the result was seed-corrected z-score 0.6386.
For UGACCGAGAAGUAAGUCCC against PALB2 the result was seed-corrected z-score 0.02719.